Results on 2 molecules are retold here after PMC5779224.

Assay [1] addresses AnkB 28–847 (MBD + partial AI-c) (human) (UniProt Q01484). The experiment in a line: ITC; VP-ITC MicroCal, 25 °C; proteins in 50 mM Tris-HCl pH 7.8, 1 mM DTT, 1 mM EDTA with 100 mM or 500 mM NaCl as required; who was titrated is not told; both purified. Background: ITC needs no label: the signal is the heat of the interaction.
Assay [2] has as its target AnkG 38–855 (AnkG MBD-AI-c protein; MBD + partial AI-c) (rat) (UniProt O70511). The assay is described as above.

These are yes or no findings as the source states them, for the method shown.

Turning to EDLKELGDDSLPSSQFLDGANALRYSLEGGRS (domain or fragment, UniProt Q01484-2 865-896) [AnkB_AI-b Met884Ala, Tyr886Ala], in assay [1], the binding result was “no binding”.

B1: AnkG linker (861-920) Asp887Ala, Asp889Ala, Lys890Glu (domain or fragment, UniProt O70511-1 861-920)
chain: KASAPEKLSDGEYISDGEEGEDAITGATAEYLGPQDLKELGDDSLPAEGYVGFSLGARSA
Turning to B1, in assay [2], the binding result is recorded as “no binding”.
